For this assay, the target named is T1, EhRGS-RhoGEF (E. histolytica) (UniProt C4LYV4).
T1 sequence: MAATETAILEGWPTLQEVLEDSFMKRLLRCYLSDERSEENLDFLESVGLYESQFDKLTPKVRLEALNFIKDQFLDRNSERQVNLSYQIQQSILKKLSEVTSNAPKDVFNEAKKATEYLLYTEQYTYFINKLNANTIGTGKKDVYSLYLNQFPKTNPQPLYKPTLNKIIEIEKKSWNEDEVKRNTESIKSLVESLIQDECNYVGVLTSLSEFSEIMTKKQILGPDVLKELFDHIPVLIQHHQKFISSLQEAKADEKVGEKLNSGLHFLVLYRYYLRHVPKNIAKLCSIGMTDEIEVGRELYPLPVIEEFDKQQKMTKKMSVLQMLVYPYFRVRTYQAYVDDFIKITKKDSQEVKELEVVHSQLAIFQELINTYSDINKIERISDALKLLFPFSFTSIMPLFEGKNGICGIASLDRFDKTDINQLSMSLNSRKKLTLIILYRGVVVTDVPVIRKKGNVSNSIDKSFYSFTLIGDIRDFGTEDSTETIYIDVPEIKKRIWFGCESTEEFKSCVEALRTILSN
As to the kind of experiment: SPR; both purified. (In general: In SPR one partner is held on a chip, and binding of the other changes the refractive index at the surface.)

Protein sequences, listed by entry. Tags and fused reporters are not part of them.
UniProt C4M483: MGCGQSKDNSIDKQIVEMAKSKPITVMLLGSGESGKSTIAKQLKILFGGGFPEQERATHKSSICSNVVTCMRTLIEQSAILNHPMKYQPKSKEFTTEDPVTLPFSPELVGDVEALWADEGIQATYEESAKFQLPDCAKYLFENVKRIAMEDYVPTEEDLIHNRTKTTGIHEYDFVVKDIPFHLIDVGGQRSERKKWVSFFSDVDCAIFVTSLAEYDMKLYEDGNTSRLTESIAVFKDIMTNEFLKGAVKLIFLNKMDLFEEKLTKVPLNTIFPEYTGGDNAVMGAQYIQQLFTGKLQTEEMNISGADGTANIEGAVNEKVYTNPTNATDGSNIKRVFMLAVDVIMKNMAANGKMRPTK

Results are given in words; binding and its absence hold for the method and conditions named. Some binding calls cover weakened binding; strength is not graded here. Sequences can lack the tags named with a protein.

Among the data in PMC3499586, “Heterotrimeric G-protein Signaling Is Critical to Pathogenic Processes in Entamoeba histolytica” (PLoS Pathogens, 2012) are binding values, retold here.

“EhGα1 (recombinant, purified from E. coli) (from UniProt C4M483 1-358)”: the binding entry is “binds”.
